Reference: doi:10.1101/725697

B1: Arabidopsis SUMO3 fused to SCFP3A amino acids 156-239 (protein, UniProt Q9FLP5 1-111)
chain: MSNPQDDKPIDQEQEAHVILKVKSQDGDEVLFKNKKSAPLKKLMYVYCDRRGLKLDAFAFIFNGARIGGLETPDELDMEDGDVIDACRAMSGGLRANQRQWSYMLFDHNGL
B2: Arabidopsis SUMO5 fused to SCFP3A amino acids 156-239 (protein, UniProt Q8VZI7 1-108)
chain: MVSSTDTISASFVSKKSRSPETSPHMKVTLKVKNQQGAEDLYKIGTHAHLKKLMSAYCTKRNLDYSSVRFVYNGREIKARQTPAQLHMEEEDEICMVMELGGGGPYTP
B3: Arabidopsis E2 SUMO conjugating enzyme SCE1 fused to SCFP3A amino acids 156-239 (enzyme, UniProt Q42551 1-160)
chain: MASGIARGRLAEERKSWRKNHPHGFVAKPETGQDGTVNLMVWHCTIPGKAGTDWEGGFFPLTMHFSEDYPSKPPKCKFPQGFFHPNVYPSGTVCLSILNEDYGWRPAITVKQILVGIQDLLDTPNPADPAQTDGYHLFCQDPVEYKKRVKLQSKQYPALV
B4: AtSIZ1 fused to SCFP3A amino acids 156-239 (pC:AtSIZ1) (enzyme, UniProt Q680Q4 1-884)
chain: MDLEANCKEKLSYFRIKELKDVLTQLGLSKQGKKQELVDRILTLLSDEQAARLLSKKNTVAKEAVAKLVDDTYRKMQVSGASDLASKGQVSSDTSNLKVKGEPEDPFQPEIKVRCVCGNSLETDSMIQCEDPRCHVWQHVGCVILPDKPMDGNPPLPESFYCEICRLTRADPFWVTVAHPLSPVRLTATTIPNDGASTMQSVERTFQITRADKDLLAKPEYDVQAWCMLLNDKVLFRMQWPQYADLQVNGVPVRAINRPGGQLLGVNGRDDGPIITSCIRDGVNRISLSGGDVRIFCFGVRLVKRRTLQQVLNLIPEEGKGETFEDALARVRRCIGGGGGDDNADSDSDIEVVADFFGVNLRCPMSGSRIKVAGRFLPCVHMGCFDLDVFVELNQRSRKWQCPICLKNYSVEHVIVDPYFNRITSKMKHCDEEVTEIEVKPDGSWRVKFKRESERRELGELSQWHAPDGSLCPSAVDIKRKMEMLPVKQEGYSDGPAPLKLGIRKNRNGIWEVSKPNTNGLSSSNRQEKVGYQEKNIIPMSSSATGSGRDGDDASVNQDAIGTFDFVANGMELDSISMNVDSGYNFPDRNQSGEGGNNEVIVLSDSDDENDLVITPGPAYSGCQTDGGLTFPLNPPGIINSYNEDPHSIAGGSSGLGLFNDDDEFDTPLWSFPSETPEAPGFQLFRSDADVSGGLVGLHHHSPLNCSPEINGGYTMAPETSMASVPVVPGSTGRSEANDGLVDNPLAFGRDDPSLQIFLPTKPDASAQSGFKNQADMSNGLRSEDWISLRLGDSASGNHGDPATTNGINSSHQMSTREGSMDTTTETASLLLGMNDSRQDKAKKQRSDNPFSFPRQKRSNNEQDHQTRHRSLNKICIILCAGKN

biological target: GpRbp-1 fused to SCFP3A amino acids 1-173 (pN:Rbp1) (Globodera pallida); experiment: split reporter

binding, binds:
B1
B2
B3
B4

No constants are given. Whether binding was seen depends on the method and setting. In cells and extracts the contact can be indirect. A result given as binding can be weak or reduced; the word gives no strength. Tags and fused reporters may be left off the sequences shown.
